Test results reported in article PMC6469404.
No constants are given. Whether binding was seen depends on the method and setting. Binding seen in cells or lysates may run through a third protein. Some binding calls cover weakened binding; strength is not graded here. Where a sequence is shown, tags or fusion partners need not be part of it.

By UniProt entry, the sequences of proteins in these tests, tags left out.
UniProt P39926: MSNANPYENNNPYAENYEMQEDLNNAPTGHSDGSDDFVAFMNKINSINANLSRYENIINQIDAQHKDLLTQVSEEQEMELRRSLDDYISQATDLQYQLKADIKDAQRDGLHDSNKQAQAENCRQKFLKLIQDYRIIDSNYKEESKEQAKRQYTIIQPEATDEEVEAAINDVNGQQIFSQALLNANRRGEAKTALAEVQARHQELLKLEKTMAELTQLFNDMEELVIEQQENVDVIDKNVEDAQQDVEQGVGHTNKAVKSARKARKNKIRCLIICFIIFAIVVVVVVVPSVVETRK

Key:
Assay in all cases: pull-down; calmodulin affinity purification coupled to western blot (AP-WB): TAP-tagged interactor as bait on calmodulin sepharose beads, galactose-induced Wsc1-HA as prey, yeast lysate in CaM-IPLB with 1% Triton X-100, 2 hr at 4°
[1] = target: T1, Fba1p, TAP-tagged bait (S. cerevisiae) (UniProt P14540)
T1 sequence: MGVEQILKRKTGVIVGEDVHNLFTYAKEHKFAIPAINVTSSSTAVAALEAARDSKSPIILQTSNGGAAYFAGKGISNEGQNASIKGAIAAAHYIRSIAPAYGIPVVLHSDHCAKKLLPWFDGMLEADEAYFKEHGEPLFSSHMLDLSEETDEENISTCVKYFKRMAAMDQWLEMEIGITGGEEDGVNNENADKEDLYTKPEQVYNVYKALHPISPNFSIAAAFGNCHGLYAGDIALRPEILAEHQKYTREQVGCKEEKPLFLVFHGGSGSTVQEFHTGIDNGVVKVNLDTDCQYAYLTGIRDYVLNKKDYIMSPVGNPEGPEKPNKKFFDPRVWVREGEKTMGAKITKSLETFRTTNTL

[2] = target: T2, Msh6p, TAP-tagged bait (S. cerevisiae) (UniProt Q03834)
T2 sequence: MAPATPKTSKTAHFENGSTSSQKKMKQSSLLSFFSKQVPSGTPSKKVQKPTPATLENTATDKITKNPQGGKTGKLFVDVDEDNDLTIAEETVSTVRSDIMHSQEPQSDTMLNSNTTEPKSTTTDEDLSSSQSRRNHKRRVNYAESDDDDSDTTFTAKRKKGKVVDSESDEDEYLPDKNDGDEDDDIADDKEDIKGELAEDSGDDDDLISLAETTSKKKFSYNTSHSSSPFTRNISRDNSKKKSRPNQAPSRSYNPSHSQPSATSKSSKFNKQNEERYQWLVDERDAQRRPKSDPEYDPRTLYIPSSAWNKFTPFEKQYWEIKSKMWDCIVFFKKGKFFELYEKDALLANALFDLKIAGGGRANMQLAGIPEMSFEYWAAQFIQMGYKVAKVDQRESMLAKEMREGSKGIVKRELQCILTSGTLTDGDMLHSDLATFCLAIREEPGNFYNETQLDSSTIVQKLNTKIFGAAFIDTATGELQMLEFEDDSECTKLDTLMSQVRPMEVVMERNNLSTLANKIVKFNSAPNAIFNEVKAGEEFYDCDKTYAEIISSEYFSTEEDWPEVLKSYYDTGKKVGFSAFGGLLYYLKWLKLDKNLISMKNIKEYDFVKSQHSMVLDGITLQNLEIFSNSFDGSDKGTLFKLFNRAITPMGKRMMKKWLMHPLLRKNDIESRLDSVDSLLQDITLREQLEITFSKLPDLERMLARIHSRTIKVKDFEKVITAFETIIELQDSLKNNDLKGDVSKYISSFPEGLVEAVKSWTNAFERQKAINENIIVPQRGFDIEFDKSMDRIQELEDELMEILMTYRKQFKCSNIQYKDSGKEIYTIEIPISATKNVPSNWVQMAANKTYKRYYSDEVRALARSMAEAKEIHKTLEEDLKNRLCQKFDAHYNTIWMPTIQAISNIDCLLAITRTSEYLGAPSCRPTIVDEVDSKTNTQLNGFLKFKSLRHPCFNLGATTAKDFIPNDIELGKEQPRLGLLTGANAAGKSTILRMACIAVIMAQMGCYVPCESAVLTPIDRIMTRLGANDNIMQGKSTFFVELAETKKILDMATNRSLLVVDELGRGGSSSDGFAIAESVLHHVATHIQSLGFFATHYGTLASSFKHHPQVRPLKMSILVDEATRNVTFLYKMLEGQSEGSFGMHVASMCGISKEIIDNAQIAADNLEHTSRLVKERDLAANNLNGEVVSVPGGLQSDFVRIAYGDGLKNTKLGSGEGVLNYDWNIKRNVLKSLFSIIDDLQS

[3] = target: T3, Ras2p, TAP-tagged bait (S. cerevisiae) (UniProt P01120)
T3 sequence: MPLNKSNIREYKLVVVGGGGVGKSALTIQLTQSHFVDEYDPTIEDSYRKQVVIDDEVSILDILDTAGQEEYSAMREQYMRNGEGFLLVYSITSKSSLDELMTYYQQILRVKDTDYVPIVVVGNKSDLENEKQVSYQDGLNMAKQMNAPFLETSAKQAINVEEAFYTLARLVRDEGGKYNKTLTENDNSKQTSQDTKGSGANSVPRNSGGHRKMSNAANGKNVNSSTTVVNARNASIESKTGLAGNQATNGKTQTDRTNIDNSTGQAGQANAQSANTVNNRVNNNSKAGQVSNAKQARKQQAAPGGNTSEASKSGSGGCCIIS

[4] = target: Sso2p, TAP-tagged bait (S. cerevisiae) (UniProt P39926)
[5] = target: T4, Zeo1p, TAP-tagged bait (S. cerevisiae) (UniProt Q08245)
T4 sequence: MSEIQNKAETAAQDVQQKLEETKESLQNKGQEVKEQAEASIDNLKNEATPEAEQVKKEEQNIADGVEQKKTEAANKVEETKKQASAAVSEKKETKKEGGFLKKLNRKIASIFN

Measured: binding

B1: Wsc1-HA (protein, UniProt P54867 22-378)
chain: YEYVNCFSSLPSDFSKADSYNWQSSSHCNSECSAKGASYFALYNHSECYCGDTNPSGSESTSSSCNTYCFGYSSEMCGGEDAYSVYQLDSDTNSNSISSSDSSTESTSASSSTTSSTTSSTTSTTSSTTSSTTSSMASSSTVQNSPESTQAAASISTSQSSSTVTSESSLTSDTLATSSTSSQSQDATSIIYSTTFHTEGGSTIFVTNTITASAQNSGSATGTAGSDSTSGSKTHKKKANVGAIVGGVVGGVVGAVAIALCILLIVRHINMKREQDRMEKEYQEAIKPVEYPDKLYASSFSSNHGPSSGSFEEEHTKGQTDINPFDDSRRISNGTFINGGPGGKNNVLTVVNPDEAD
binds: [1] | [2] | [3] | [4] | [5]
